# Where no unit stands, none is given here, and values compare only within one read-out.
# Tests used:
# [1] = Serum ethanolamine phospholipid ratios to PtdEt 16:0/18:0 (M01) in human cohorts
# [2] = Serum ethanolamine phospholipid levels in human cohorts (dementia severity, post-mortem pathology, age) by flow-injection MS/MS
# [3] = serum, females, post mortem SDAT
# [4] = serum, females, post mortem control
compound,measurement,setting,value
"CC/C=C\C/C=C\C/C=C\C/C=C\C/C=C\C/C=C\CCC(=O)O [Metabolite M25, Free 22:6]",Ratio of ethanolamine phospholipid ratios to M01 between cohorts,"[1]; AD, All to CN, Male",0.965
same,Ratio of ethanolamine phospholipid ratios to M01 between cohorts,"[1]; ADAS 5-19 to CN, Male",1.025
same,Ratio of ethanolamine phospholipid ratios to M01 between cohorts,"[1]; ADAS 20-39 to CN, Male",0.973
same,Ratio of ethanolamine phospholipid ratios to M01 between cohorts,"[1]; ADAS 40-70 to CN, Male",0.838
same,"Average serum ethanolamine phospholipid ratio to M01, Mean","[1]; Cognitive Normal, Male, serum",2.160
same,"Average serum ethanolamine phospholipid ratio to M01, Mean","[1]; SDAT, ADAS 5-19, Male, serum",2.215
same,"Average serum ethanolamine phospholipid ratio to M01, Mean","[1]; SDAT, ADAS 20-39, Male, serum",2.102
same,"Average serum ethanolamine phospholipid ratio to M01, Mean","[1]; SDAT, ADAS 40-70, Male, serum",1.811
same,"Average serum ethanolamine phospholipid ratio to M01, Mean","[1]; SDAT_all, Male, serum",2.085
same,"Ethanolamine Phospholipid Ratio to M01, Mean, Age Ctl, 30-39, Female","[1]; human serum, females aged 30-39",2.505
same,"Ethanolamine Phospholipid Ratio to M01, Mean, Age Ctl, 40-49, Female","[1]; human serum, females aged 40-49",2.286
same,"Ethanolamine Phospholipid Ratio to M01, Mean, Age Ctl, 50-59, Female","[1]; human serum, females aged 50-59",3.219
same,"Ratio of Ethanolamine Phospholipid Ratio to M01, 50-59 vs. 40-49, Female","[1]; human serum, females aged 50-59 vs. females aged 40-49",1.408
same,"Ethanolamine Phospholipid Ratio to M01, Mean, Age Ctl, 60-69, Female","[1]; human serum, females aged 60-69",2.995
same,"Ratio of Ethanolamine Phospholipid Ratio to M01, 60-69 vs. 40-49, Female","[1]; human serum, females aged 60-69 vs. females aged 40-49",1.310
same,"Ethanolamine Phospholipid Ratio to M01, Mean, Age Ctl, 70+_Female","[1]; human serum, females aged 70+",3.280
same,"Ratio of Ethanolamine Phospholipid Ratio to M01, 70+ vs. 40-49, Female","[1]; human serum, females aged 70+ vs. females aged 40-49",1.435
same,"Ratio of Ethanolamine Phospholipid Ratio to M01, 50-59 vs. 40-49, Male","[1]; human serum, males aged 50-59 vs. males aged 40-49",1.391
same,"Ratio of Ethanolamine Phospholipid Ratio to M01, 60-69 vs. 40-49, Male","[1]; human serum, males aged 60-69 vs. males aged 40-49",1.321
same,"Ratio of Ethanolamine Phospholipid Ratio to M01, 70+ vs. 40-49, Male","[1]; human serum, males aged 70+ vs. males aged 40-49",1.553
same,"Ratio of ethanolamine phospholipid ratio to M01, ADAS 5-19 to CN, Female","[1]; serum, females, ADAS 5-19 vs cognitive normal",0.966
same,"Ratio of ethanolamine phospholipid ratio to M01, ADAS 20-39 to 5-19, Female","[1]; serum, females, ADAS 20-39 vs ADAS 5-19",1.018
same,"Ratio of ethanolamine phospholipid ratio to M01, ADAS 20-39 to CN, Female","[1]; serum, females, ADAS 20-39 vs cognitive normal",0.983
same,"Ratio of ethanolamine phospholipid ratio to M01, ADAS 40-70 to 5-19, Female","[1]; serum, females, ADAS 40-70 vs ADAS 5-19",0.922
same,"Ratio of ethanolamine phospholipid ratio to M01, ADAS 40-70 to 20-39, Female","[1]; serum, females, ADAS 40-70 vs ADAS 20-39",0.906
same,"Ratio of ethanolamine phospholipid ratio to M01, ADAS 40-70 to CN, Female","[1]; serum, females, ADAS 40-70 vs cognitive normal",0.890
same,"Ethanolamine phospholipid ratio to M01, Mean, SDAT, ADAS 5-19, Female","[1]; serum, females, SDAT ADAS 5-19",2.072
same,"Ethanolamine phospholipid ratio to M01, Mean, SDAT, ADAS 20-39, Female","[1]; serum, females, SDAT ADAS 20-39",2.109
same,"Ethanolamine phospholipid ratio to M01, Mean, SDAT, ADAS 40-70, Female","[1]; serum, females, SDAT ADAS 40-70",1.910
same,"Ratio of ethanolamine phospholipid ratio to M01, AD, All to CN, Female","[1]; serum, females, all AD vs cognitive normal",0.947
same,"Ethanolamine phospholipid ratio to M01, Mean, SDAT_all Female","[1]; serum, females, all SDAT",2.031
same,"Ratio of ethanolamine phospholipid ratio to M01, Autopsy AD vs. Control, Female","[1]; serum, females, autopsy AD vs post mortem control",1.279
same,"Ethanolamine phospholipid ratio to M01, Mean, Cognitive Normal, Female","[1]; serum, females, cognitive normal",2.145
same,"Ethanolamine phospholipid ratio to M01, Mean, Post Mortem SDAT Female",[1]; [3],1.767
same,"Ethanolamine phospholipid ratio to M01, Mean, Post Mortem Ctl, Female",[1]; [4],1.382
same,"Ratio of ethanolamine phospholipid ratio to M01, ADAS 20-39 to 5-19, Male","[1]; serum, males, SDAT ADAS 20-39 vs ADAS 5-19",0.949
same,"Ratio of ethanolamine phospholipid ratio to M01, ADAS 40-70 to 5-19, Male","[1]; serum, males, SDAT ADAS 40-70 vs ADAS 5-19",0.818
same,"Ratio of ethanolamine phospholipid ratio to M01, ADAS 40-70 to 20-39, Male","[1]; serum, males, SDAT ADAS 40-70 vs ADAS 20-39",0.862
same,"Ethanolamine phospholipid ratio to M01, Mean, Age Ctl, 30-39, Male","[1]; serum, males, age control 30-39",2.182
same,"Ethanolamine phospholipid ratio to M01, Mean, Age Ctl, 40-49, Male","[1]; serum, males, age control 40-49",1.975
same,"Ethanolamine phospholipid ratio to M01, Mean, Age Ctl, 50-59, Male","[1]; serum, males, age control 50-59",2.747
same,"Ethanolamine phospholipid ratio to M01, Mean, Age Ctl, 60-69, Male","[1]; serum, males, age control 60-69",2.608
same,"Ethanolamine phospholipid ratio to M01, Mean, Age Ctl, 70+_Male","[1]; serum, males, age control 70+",3.066
same,"Ethanolamine phospholipid ratio to M01, Mean, Post Mortem SDAT Male","[1]; serum, males, post mortem SDAT",2.384
same,"Ratio of ethanolamine phospholipid ratio to M01, SDAT vs Control (post mortem, males)","[1]; serum, males, post mortem SDAT vs post mortem control",1.154
same,"Ethanolamine phospholipid ratio to M01, Mean, Post Mortem Ctl, Male","[1]; serum, males, post mortem control",2.066
same,Ratio of serum levels,"[2]; AD, All to CN, Male",0.909
same,Ratio of serum levels,"[2]; ADAS 5-19 to CN, Male",1.035
same,Ratio of serum levels,"[2]; ADAS 20-39 to 5-19, Male",0.836
same,Ratio of serum levels,"[2]; ADAS 20-39 to CN, Male",0.865
same,Ratio of serum levels,"[2]; ADAS 40-70 to 5-19, Male",0.735
same,Ratio of serum levels,"[2]; ADAS 40-70 to 20-39, Male",0.879
same,Ratio of serum levels,"[2]; ADAS 40-70 to CN, Male",0.760
same,"Serum level, Mean","[2]; Cognitive Normal, Female",0.241
same,"Average serum level, Mean","[2]; Cognitive Normal, Male",0.240
same,"Serum level, Mean","[2]; Post Mortem Ctl, Male",0.238
same,"Serum level, Mean",[2]; Post Mortem SDAT Male,0.180
same,Ratio of serum levels,"[2]; Post mortem SDAT vs Control, Male",0.757
same,"Serum level, Mean","[2]; SDAT, ADAS 5-19, Female",0.218
same,"Average serum level, Mean","[2]; SDAT, ADAS 5-19, Male",0.249
same,"Serum level, Mean","[2]; SDAT, ADAS 20-39, Female",0.212
same,"Average serum level, Mean","[2]; SDAT, ADAS 20-39, Male",0.208
same,"Serum level, Mean","[2]; SDAT, ADAS 40-70, Female",0.204
same,"Average serum level, Mean","[2]; SDAT, ADAS 40-70, Male",0.183
same,"Serum level, Mean","[2]; SDAT_all, Female",0.211
same,"Average serum level, Mean","[2]; SDAT_all, Male",0.218
same,"Ratio, ADAS 5-19 to CN, Female","[2]; serum level ratio, females, ADAS 5-19 vs CN",0.907
same,"Ratio, ADAS 20-39 to 5-19, Female","[2]; serum level ratio, females, ADAS 20-39 vs ADAS 5-19",0.971
same,"Ratio, ADAS 20-39 to CN, Female","[2]; serum level ratio, females, ADAS 20-39 vs CN",0.880
same,"Ratio, ADAS 40-70 to 5-19, Female","[2]; serum level ratio, females, ADAS 40-70 vs ADAS 5-19",0.934
same,"Ratio, ADAS 40-70 to 20-39, Female","[2]; serum level ratio, females, ADAS 40-70 vs ADAS 20-39",0.962
same,"Ratio, ADAS 40-70 to CN, Female","[2]; serum level ratio, females, ADAS 40-70 vs CN",0.847
same,"Ratio, 50-59 vs. 40-49, Female","[2]; serum level ratio, females, age 50-59 vs 40-49",1.176
same,"Ratio, 60-69 vs. 40-49, Female","[2]; serum level ratio, females, age 60-69 vs 40-49",1.381
same,"Ratio, 70+ vs. 40-49, Female","[2]; serum level ratio, females, age 70+ vs 40-49",1.581
same,"Ratio, AD, All to CN, Female","[2]; serum level ratio, females, all AD vs cognitively normal",0.876
same,"Ratio, Autopsy AD vs. Control, Female","[2]; serum level ratio, females, autopsy AD vs control",1.051
same,"Ratio, 50-59 vs. 40-49, Male","[2]; serum level ratio, males, age 50-59 vs 40-49",1.405
same,"Ratio, 60-69 vs. 40-49, Male","[2]; serum level ratio, males, age 60-69 vs 40-49",1.589
same,"Ratio, 70+ vs. 40-49, Male","[2]; serum level ratio, males, age 70+ vs 40-49",1.912
same,"Mean serum level, Age Ctl, 30-39, Female","[2]; serum, females, age 30-39",0.239
same,"Mean serum level, Age Ctl, 40-49, Female","[2]; serum, females, age 40-49",0.236
same,"Mean serum level, Age Ctl, 50-59, Female","[2]; serum, females, age 50-59",0.277
same,"Mean serum level, Age Ctl, 60-69, Female","[2]; serum, females, age 60-69",0.326
same,"Mean serum level, Age Ctl, 70+, Female","[2]; serum, females, age 70+",0.373
same,"Mean serum level, Post Mortem SDAT, Female",[2]; [3],0.198
same,"Mean serum level, Post Mortem Ctl, Female",[2]; [4],0.189
same,"Mean serum level, Age Ctl, 30-39, Male","[2]; serum, males, age 30-39",0.205
same,"Mean serum level, Age Ctl, 40-49, Male","[2]; serum, males, age 40-49",0.195
same,"Mean serum level, Age Ctl, 50-59, Male","[2]; serum, males, age 50-59",0.274
same,"Mean serum level, Age Ctl, 60-69, Male","[2]; serum, males, age 60-69",0.310
same,"Mean serum level, Age Ctl, 70+, Male","[2]; serum, males, age 70+",0.374
